Measurements reported in paper PMC10837360.

Biological target: HA-P85 (p85 regulatory subunit of PI3K)
Test: co-IP; PLC/PRF/5 cells transfected with Flag-PIP4K2A-L, Flag-PIP4K2A-S and HA-P85; IP with anti-HA or anti-Flag, IgG as control; RIPA lysate, magnetic beads, overnight at 4 °C

B1: Flag-PIP4K2A-L (PIP4K2A isoform including exon 5) (enzyme, UniProt P48426 1-406)
chain: MATPGNLGSSVLASKTKTKKKHFVAQKVKLFRASDPLLSVLMWGVNHSINELSHVQIPVMLMPDDFKAYSKIKVDNHLFNKENMPSHFKFKEYCPMVFRNLRERFGIDDQDFQNSLTRSAPLPNDSQARSGARFHTSYDKRYIIKTITSEDVAEMHNILKKYHQYIVECHGITLLPQFLGMYRLNVDGVEIYVIVTRNVFSHRLSVYRKYDLKGSTVAREASDKEKAKELPTLKDNDFINEGQKIYIDDNNKKVFLEKLKKDVEFLAQLKLMDYSLLVGIHDVERAEQEEVECEENDGEEEGESDGTHPVGTPPDSPGNTLNSSPPLAPGEFDPNIDVYGIKCHENSPRKEVYFMAIIDILTHYDAKKKAAHAAKTVKHGAGAEISTVNPEQYSKRFLDFIGHILT
For B1, the binding was “binds”.

No constants are given. Whether binding was seen depends on the method and setting. Binding seen in cells or lysates may run through a third protein. Binding can be weak; no strength is given. Sequences can lack the tags named with a protein.
